Laboratory results published in US20180169257A1 (Seagen, published 2018).
These are yes or no findings as the source states them, for the method shown. Binding can be weak; no strength is given. Values belong to the binder of their own block, whether it stands above or below them.

Biological target: cynomolgus NTB-A (cynomolgus monkey)
Experiment: flow cytometry on 293-F17 cells overexpressing cynomolgus NTB-A, 20 µg/mL antibody, goat anti-human IgG-PE

binding: binds
B1: chimeric 20F3 (antibody, V domains shown)
VH: QIQLVQSGPELKKPGETVKISCKASGYTFTNYGMNWVKQAPGKDLKWMGWINTYSGEPRYADDFKGRFAFSLEKSANTAYLQINNLKNEDMATYFCARDYGRWYFDVWGTGTTVTVSS
VL: QIVLSQSPAILSASPGEKVTMTCRASSSVSHMHWYQQKPGSSPKPWIYATSNLASGVPARFSGSGSGTSYSLTISRVEAEDAATYYCQQWSSTPRTFGGGTKLEIKR
notes: It was detected with goat anti-human IgG, so the constant regions are human, but they are not specified

binding: binds
B2: humanized 20F3 HDLD antibody (antibody, V domains shown)
VH: QIQLVQSGSELKKPGASVKVSCKASGYTFTNYGMNWVRQAPGQDLKWMGWINTYSGEPRYADDFKGRFVFSLDKSVNTAYLQISSLKAEDTAVYYCARDYGRWYFDVWGQGTTVTVSS
VL: QIVLSQSPATLSLSPGERATMSCRASSSVSHMHWYQQKPGQAPRPWIYATSNLASGVPARFSGSGSGTDYTLTISSLEPEDFAVYYCQQWSSTPRTFGGGTKVEIKR
notes: also called h20F3_HDLD; h20F3_HDLD-AF647
